Laboratory results as given in publication doi:10.1101/2024.01.29.577192.
No constants are given. Whether binding was seen depends on the method and setting. Binding seen in cells or lysates may run through a third protein. Some results given as binding are weak or reduced against the parent protein; the word gives no strength.

The chains behind the UniProt entries cited, without tags or fusion partners.
UniProt Q00839: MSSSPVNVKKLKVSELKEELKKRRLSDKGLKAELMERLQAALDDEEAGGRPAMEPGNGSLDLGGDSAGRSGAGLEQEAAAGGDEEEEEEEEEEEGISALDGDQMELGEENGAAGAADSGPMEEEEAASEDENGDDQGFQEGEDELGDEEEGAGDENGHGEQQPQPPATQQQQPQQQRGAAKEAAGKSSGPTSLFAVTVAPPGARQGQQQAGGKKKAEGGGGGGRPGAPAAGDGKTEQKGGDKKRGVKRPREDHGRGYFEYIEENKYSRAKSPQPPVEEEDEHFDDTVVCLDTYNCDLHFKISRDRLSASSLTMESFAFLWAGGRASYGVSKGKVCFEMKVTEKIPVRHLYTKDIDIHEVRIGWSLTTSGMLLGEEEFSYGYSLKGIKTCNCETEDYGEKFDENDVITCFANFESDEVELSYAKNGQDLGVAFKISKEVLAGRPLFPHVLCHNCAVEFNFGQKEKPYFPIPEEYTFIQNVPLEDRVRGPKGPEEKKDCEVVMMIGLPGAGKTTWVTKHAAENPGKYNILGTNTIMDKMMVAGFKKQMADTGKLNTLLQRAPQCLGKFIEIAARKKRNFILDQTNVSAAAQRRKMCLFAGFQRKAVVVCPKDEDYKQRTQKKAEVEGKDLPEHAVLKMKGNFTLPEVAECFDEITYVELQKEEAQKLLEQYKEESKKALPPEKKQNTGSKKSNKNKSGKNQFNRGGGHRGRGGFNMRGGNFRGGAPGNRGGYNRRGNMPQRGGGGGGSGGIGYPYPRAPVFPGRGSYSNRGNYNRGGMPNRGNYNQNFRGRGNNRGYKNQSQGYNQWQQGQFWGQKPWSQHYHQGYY
UniProt O00571: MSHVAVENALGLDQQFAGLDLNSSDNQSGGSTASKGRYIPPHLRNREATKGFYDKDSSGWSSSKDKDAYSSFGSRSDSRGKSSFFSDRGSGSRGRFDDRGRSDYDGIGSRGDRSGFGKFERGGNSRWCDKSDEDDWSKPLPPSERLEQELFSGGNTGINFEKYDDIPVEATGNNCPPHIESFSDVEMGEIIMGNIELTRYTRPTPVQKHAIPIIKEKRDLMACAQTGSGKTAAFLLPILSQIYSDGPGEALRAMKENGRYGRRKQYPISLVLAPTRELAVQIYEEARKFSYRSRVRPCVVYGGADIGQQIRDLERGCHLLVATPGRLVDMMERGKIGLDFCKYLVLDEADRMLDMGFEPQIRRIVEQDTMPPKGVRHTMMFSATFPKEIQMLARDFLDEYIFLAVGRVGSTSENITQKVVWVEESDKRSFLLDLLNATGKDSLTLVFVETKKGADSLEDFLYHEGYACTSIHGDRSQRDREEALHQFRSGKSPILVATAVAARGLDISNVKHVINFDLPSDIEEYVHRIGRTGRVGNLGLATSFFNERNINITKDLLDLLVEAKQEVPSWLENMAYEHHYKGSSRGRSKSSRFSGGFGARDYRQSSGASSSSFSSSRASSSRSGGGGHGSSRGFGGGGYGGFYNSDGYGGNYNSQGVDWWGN

Biological target: flag-tagged unmodified hnRNP U (WT) (UniProt Q00839)
Assay: co-IP

Row | binding | Molecule
1 | binds | DDX3X (from UniProt O00571 1-662)
2 | no binding | GRSF1 (protein, UniProt Q12849 118-480) SQESKTTYLEDLPPPPEYELAPSKLEEEVDDVFLIRAQGLPWSCTMEDVLNFFSDCRIRNGENGIHFLLNRDGKRRGDALIEMESEQDVQKALEKHRMYMGQRYVEVYEINNEDVDALMKSLQVKSSPVVNDGVVRLRGLPYSCNEKDIVDFFAGLNIVDITFVMDYRGRRKTGEAYVQFEEPEMANQALLKHREEIGNRYIEIFPSRRNEVRTHVGSYKGKKIASFPTAKYITEPEMVFEEHEVNEDIQPMTAFESEKEIELPKEVPEKLPEAADFGTTSSLHFVHMRGLPFQANAQDIINFFAPLKPVRITMEYSSSGKATGEADVHFETHEDAVAAMLKDRSHVHHRYIELFLNSCPKGK
